From article PMC7819943, “Rice protein-binding microarrays: a tool to detect cis-acting elements near promoter regions in rice”
This is one part of the list.

Each sequence was assayed against T1, OsSMF1 (Oryza sativa, UniProt Q6ZLB0 1-436) (assay: protein-binding microarray (RPBM); PBS, 2% BSA, 51.3 ng/ul salmon testes DNA, 50 uM zinc acetate, 200 nM TF, 25 C, 1 h; high values mean tight binding). Conditions: protein: recombinant; tags: N-terminal polyhistidine and DsRed monomer fusion (pET32a); chain copies: 2; label: CyDye5-dUTP incorporated in the synthesized complementary strand; 3' TTTTT single-stranded linker to array surface; dsDNA, one strand shown.
T1 sequence: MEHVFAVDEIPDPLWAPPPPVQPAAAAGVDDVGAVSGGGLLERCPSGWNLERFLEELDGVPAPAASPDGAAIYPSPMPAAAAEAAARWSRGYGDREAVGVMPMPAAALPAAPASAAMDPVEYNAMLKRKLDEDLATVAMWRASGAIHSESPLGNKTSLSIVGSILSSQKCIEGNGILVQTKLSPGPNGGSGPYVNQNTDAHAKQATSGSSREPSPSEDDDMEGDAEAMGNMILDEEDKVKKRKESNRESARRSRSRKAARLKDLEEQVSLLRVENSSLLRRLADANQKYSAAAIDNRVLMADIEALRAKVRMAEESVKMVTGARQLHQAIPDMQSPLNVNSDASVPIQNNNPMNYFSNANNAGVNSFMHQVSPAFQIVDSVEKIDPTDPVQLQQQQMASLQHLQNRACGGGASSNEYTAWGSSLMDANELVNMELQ
How it was run: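 Polyhistidine-tagged DsRed fusions of transcription factors, joined at the N-terminus, were expressed in E. coli BL21-CodonPlus and isolated on Ni–NTA. They were incubated at 200 nM for 1 h at 25 °C on a custom Agilent array, double-stranded and BSA-blocked, in PBS with 2% BSA, salmon testes DNA and 50 µM zinc acetate. The binding signal is per-feature fluorescence intensity (arbitrary units) read on an Axon 4000B scanner after washing.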
“TTGGCGTGTGTGCAGCATTTGCGGCGGCGGCTGAGAAAGACGGAGTCACCTAGTGCAG” was tested, and the binding signal was 31100 fluorescence intensity (a.u.).
“AATTCCCGCCAACGCAGGCAACCGTAAAGCTGACGACGAGCGGAGTCACCTAGTGCAG” was tested, and the binding signal was 3950 fluorescence intensity (a.u.).
“TGCACACCCACCCACAGATTCACCATATTGGCGTGGCGGTCGGAGTCACCTAGTGCAG” was tested, and the binding signal was 4620 fluorescence intensity (a.u.).
In the case of “GCTCCTCACCCGCCGTGAACCCAACCCACATCCGCTGACGCGGAGTCACCTAGTGCAG”, the binding signal is reported as 3300 fluorescence intensity (a.u.).
In the case of “TCTGCACAGATCTATGGCCTATGGGGACTGGAGTCAGCACCGGAGTCACCTAGTGCAG”, the binding signal is reported as 4790 fluorescence intensity (a.u.).
For “CTCCGCCAGGCGCCCGCCTTGCTGGAGTTGCTGACGAAGGCGGAGTCACCTAGTGCAG”, the binding signal was 4060 fluorescence intensity (a.u.).
In the case of “TTTCTATATAAACTATATACTCTACTTCTAATATTCCTTACGGAGTCACCTAGTGCAG”, the binding signal is reported as 3160 fluorescence intensity (a.u.).
For “CGCATTGAGCCATTTACACTACACACACAGCCCCAGATTCCGGAGTCACCTAGTGCAG”, the binding signal was 3420 fluorescence intensity (a.u.).
“GTTTGGTGGGAAACACACATCATCCTTGGCACTACTGTCACGGAGTCACCTAGTGCAG” was tested, and the binding signal was 5210 fluorescence intensity (a.u.).
“AGGCCGCCCACACTATTGGGCCGCCTCATGGACCACGTGTCGGAGTCACCTAGTGCAG” was tested, and the binding signal was 7330 fluorescence intensity (a.u.).
In the case of “CTGGCAGTGGAGCCACCGTGTCACTGTCACCTACCAAAGCCGGAGTCACCTAGTGCAG”, the binding signal is reported as 7780 fluorescence intensity (a.u.).
In the case of “TCGAGTGGTCCCATATAAGTGATACGTGGACAAATAAAGTCGGAGTCACCTAGTGCAG”, the binding signal is reported as 5520 fluorescence intensity (a.u.).
For “TAATAATAAATGACGCCGATGACGTTTAAACAATCATTCGCGGAGTCACCTAGTGCAG”, the binding signal was 7480 fluorescence intensity (a.u.).
“TCGTTGGTTGGCCCAGTGGTGAATTGACTCAGTTGATTGCCGGAGTCACCTAGTGCAG” was tested, and the binding signal was 4550 fluorescence intensity (a.u.).
With “TCCTTACCCTATAAAATGGCCGTGTGACACATCCCAAATGCGGAGTCACCTAGTGCAG” the binding signal was 4080 fluorescence intensity (a.u.).
“TATGCATACGGTCAGACGTACACGTATGTCGTACACGCAACGGAGTCACCTAGTGCAG” was tested, and the binding signal was 4820 fluorescence intensity (a.u.).
With “AAAGTCCATTCAACTCACCCACGTAGGAAGGTGGAAGCGGCGGAGTCACCTAGTGCAG” the binding signal was 3810 fluorescence intensity (a.u.).
“CTTGAGAGTGTTTCAACTGCCACTGCGCCACGTCAGTTTACGGAGTCACCTAGTGCAG” was tested, and the binding signal was 21900 fluorescence intensity (a.u.).
For “TCGCGTGTACTGATCGCGTCAGCCTGACGTGTGATACTGACGGAGTCACCTAGTGCAG”, the binding signal was 10800 fluorescence intensity (a.u.).
For “GCGGTTTATGTACACGTCAGCATTTTGCTTCCTTCCTTCCCGGAGTCACCTAGTGCAG”, the binding signal was 47800 fluorescence intensity (a.u.).
In the case of “TTATTAACGATGGTTTGGTTGTGAGGTGTTGGAGTCCTTTCGGAGTCACCTAGTGCAG”, the binding signal is reported as 3300 fluorescence intensity (a.u.).
For “CTGGCGGAGGTCCTCTTCCCCACGTCGACAAGCTTCTCCTCGGAGTCACCTAGTGCAG”, the binding signal was 4160 fluorescence intensity (a.u.).
With “AACTCGTCGACAGCCCTAATGACACGTGAGGTCACATGGGCGGAGTCACCTAGTGCAG” the binding signal was 5910 fluorescence intensity (a.u.).
In the case of “GCATAGACCTGTTCCACGTTAGGTACGAACAGGCAGAGGCCGGAGTCACCTAGTGCAG”, the binding signal is reported as 3140 fluorescence intensity (a.u.).
In the case of “CTACTAATGTTTAGTTTATTGTGCTAAGCTGTCAAAATGACGGAGTCACCTAGTGCAG”, the binding signal is reported as 4060 fluorescence intensity (a.u.).
In the case of “CAATGCTAATACCTTCCACTGCTGACTGATTACCTTTTCTCGGAGTCACCTAGTGCAG”, the binding signal is reported as 5200 fluorescence intensity (a.u.).
For “ACCCAACCAAACACGGACTGGGATTTGGTGACATTCTCCCCGGAGTCACCTAGTGCAG”, the binding signal was 3470 fluorescence intensity (a.u.).
For “GTGGTTTTCAAAAGTGCCACGTAATCTAAAGACGTTTGGACGGAGTCACCTAGTGCAG”, the binding signal was 8910 fluorescence intensity (a.u.).
“CGCATCCCTCAACTCAGCGTAGAACCCACGTGAGTTCCAACGGAGTCACCTAGTGCAG” was tested, and the binding signal was 4290 fluorescence intensity (a.u.).
“GTATGCCGTGCTGCCAAACTAGTTGGATAACAAAGATTCCCGGAGTCACCTAGTGCAG” was tested, and the binding signal was 4000 fluorescence intensity (a.u.).
“TGTGACCTCGTATATCAGTAAGTATATAGATGTAGGCCTTCGGAGTCACCTAGTGCAG” was tested, and the binding signal was 3340 fluorescence intensity (a.u.).
For “TTGGGCGGTACTGAGTACTGACTCCACGTCCCTGTAACAACGGAGTCACCTAGTGCAG”, the binding signal was 6090 fluorescence intensity (a.u.).
With “CCATTCATCAACTACACCTCACTCTCTGGCGCGTCTGCCTCGGAGTCACCTAGTGCAG” the binding signal was 4370 fluorescence intensity (a.u.).
With “TGGTCGTCTCGTCGTCATCGCCTCGTCGCCTCATCTCGATCGGAGTCACCTAGTGCAG” the binding signal was 4540 fluorescence intensity (a.u.).
For “CTGCATGAATCTTAATTTGCGTACGCGTGTGGCATTATCTCGGAGTCACCTAGTGCAG”, the binding signal was 3190 fluorescence intensity (a.u.).
With “AAAAGGTTGGTGATGGGTTGAGCGTGGAAGCATCACCGTCCGGAGTCACCTAGTGCAG” the binding signal was 3250 fluorescence intensity (a.u.).
With “ACCCGGTTTTGTCAGCTGACTCAGTATAGGTCCCACATGTCGGAGTCACCTAGTGCAG” the binding signal was 4660 fluorescence intensity (a.u.).
With “TCTCTGTTCTAAAATAAAACTATTTCTATCACTTAAACTTCGGAGTCACCTAGTGCAG” the binding signal was 3460 fluorescence intensity (a.u.).
“TCGTCGTCGTCGTCGTCATCGTCTTCGTCCGGGGCCAGGTCGGAGTCACCTAGTGCAG” was tested, and the binding signal was 3660 fluorescence intensity (a.u.).
With “ATGAGTTTTCTGGAGAGGCGAACACGTCCGCGCCTCCGCGCGGAGTCACCTAGTGCAG” the binding signal was 4560 fluorescence intensity (a.u.).
With “TCTACGTATGAGTCAATACCACCCATACCTGTAAGACACCCGGAGTCACCTAGTGCAG” the binding signal was 3870 fluorescence intensity (a.u.).
For “AGAACTTCCCCTTCTCAGTGACATATGTTCCATTATCCGCCGGAGTCACCTAGTGCAG”, the binding signal was 4470 fluorescence intensity (a.u.).
